From paper PMC11192944
Results are given in words; binding and its absence hold for the method and conditions named. Binding seen in cells or lysates may run through a third protein. Some results given as binding are weak or reduced against the parent protein; the word gives no strength.

Sequences of proteins named here, by UniProt entry; tags and fusion partners are left off.
UniProt O00429: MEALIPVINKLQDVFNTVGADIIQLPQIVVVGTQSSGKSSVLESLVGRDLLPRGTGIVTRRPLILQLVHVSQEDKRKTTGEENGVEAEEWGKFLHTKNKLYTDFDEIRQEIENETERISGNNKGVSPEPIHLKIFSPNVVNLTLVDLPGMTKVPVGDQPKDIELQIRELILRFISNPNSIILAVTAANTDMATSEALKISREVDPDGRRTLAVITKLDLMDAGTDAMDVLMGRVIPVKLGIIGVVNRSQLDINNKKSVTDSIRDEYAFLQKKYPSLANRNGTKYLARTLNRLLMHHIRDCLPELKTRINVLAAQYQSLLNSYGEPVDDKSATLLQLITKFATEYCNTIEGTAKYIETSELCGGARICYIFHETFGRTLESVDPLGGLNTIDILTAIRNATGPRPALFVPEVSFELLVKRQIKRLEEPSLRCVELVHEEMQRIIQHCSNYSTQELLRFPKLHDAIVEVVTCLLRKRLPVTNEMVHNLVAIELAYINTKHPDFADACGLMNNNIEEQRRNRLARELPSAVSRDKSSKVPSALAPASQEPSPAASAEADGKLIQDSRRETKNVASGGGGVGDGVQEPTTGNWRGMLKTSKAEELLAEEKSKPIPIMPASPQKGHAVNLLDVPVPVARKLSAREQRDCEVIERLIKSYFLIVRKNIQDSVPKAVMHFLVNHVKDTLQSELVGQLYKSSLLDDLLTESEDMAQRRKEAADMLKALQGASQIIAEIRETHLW

Target: DRP1, endogenous in NPC cells (human (endogenous in NPC cells)) (UniProt O00429)
Test: co-IP; endogenous proteins in NPC cell lysate, precipitated with anti-PJA1 or anti-DRP1 antibody; IP lysis buffer, antibody overnight at 4 °C, Protein A/G magnetic beads; with or without docetaxel treatment of the cells (PJA1-PGAM5)

binding: binds
B1: PJA1, endogenous in NPC cells (protein, UniProt Q8NG27 1-643)
chain: MGQESSKPVWPNPTGGYQSNTGRRYGRRHAYVSFRPPTSQRERIASQRKTNSEVPMHRSAPSQTTKRSRSPFSTTRRSWDDSESSGTNLNIDNEDYSRYPPREYRASGSRRGMAYGHIDSYGADDSEEEGAGPVERPPVRGKTGKFKDDKLYDPEKGARSLAGPPPHFSSFSRDVREERDKLDPVPAARCSASRADFLPQSSVASQSSSEGKLATKGDSSERERREQNLPARPSRAPVSICGGGENTSKSAEEPVVRPKIRNLASPNCVKPKIFFDTDDDDDMPHSTSRWRDTANDNEGHSDGLARRGRGESSSGYPEPKYPEDKREARSDQVKPEKVPRRRRTMADPDFWTHSDDYYKYCDEDSDSDKEWIAALRRKYRSREQTLSSSGESWETLPGKEEREPPQAKVSASTGTSPGPGASASAGAGAGASAGSNGSNYLEEVREPSLQEEQASLEEGEIPWLQYHENDSSSEGDNDSGHELMQPGVFMLDGNNNLEDDSSVSEDLEVDWSLFDGFADGLGVAEAISYVDPQFLTYMALEERLAQAMETALAHLESLAVDVEVANPPASKESIDALPEILVTEDHGAVGQEMCCPICCSEYVKGEVATELPCHHYFHKPCVSIWLQKSGTCPVCRCMFPPPL
